Results are given in words; binding and its absence hold for the method and conditions named. Some entries that bind do so weakly or less than the wild type.

By UniProt entry, the sequences of proteins in these tests, tags left out.
UniProt Q53GD3: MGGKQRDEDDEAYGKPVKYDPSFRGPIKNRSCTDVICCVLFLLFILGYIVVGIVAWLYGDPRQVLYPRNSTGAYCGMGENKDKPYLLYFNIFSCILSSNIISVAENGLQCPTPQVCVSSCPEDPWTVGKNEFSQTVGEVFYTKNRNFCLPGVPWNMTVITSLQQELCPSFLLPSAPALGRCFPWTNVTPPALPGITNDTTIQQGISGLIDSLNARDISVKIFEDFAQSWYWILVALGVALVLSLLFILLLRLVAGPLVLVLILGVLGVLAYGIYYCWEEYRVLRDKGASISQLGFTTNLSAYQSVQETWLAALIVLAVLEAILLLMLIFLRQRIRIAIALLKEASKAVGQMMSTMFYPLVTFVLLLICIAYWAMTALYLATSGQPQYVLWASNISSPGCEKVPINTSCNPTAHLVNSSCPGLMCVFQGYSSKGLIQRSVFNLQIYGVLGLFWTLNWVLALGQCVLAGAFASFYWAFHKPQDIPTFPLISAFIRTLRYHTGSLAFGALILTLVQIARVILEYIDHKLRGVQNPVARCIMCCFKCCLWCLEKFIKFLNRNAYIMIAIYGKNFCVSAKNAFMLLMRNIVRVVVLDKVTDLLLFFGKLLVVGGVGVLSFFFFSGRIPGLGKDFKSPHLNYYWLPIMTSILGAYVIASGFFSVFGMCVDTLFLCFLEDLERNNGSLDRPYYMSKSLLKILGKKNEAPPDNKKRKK

Experiment [1] addresses 24P4C12 protein (human) (human) (UniProt Q53GD3). The experiment can be described thus: FACS surface staining of cell lines, 10 ug/ml MAb, anti-human IgG-PE; open histogram MAb, solid histogram irrelevant control MAb.
Experiment [2] shares this target. The experiment can be described thus: FACS surface staining (FIG. 6).

B1: Ha5-7acd7.1.1 (antibody, V domains shown)
VH: QVQLQESGPGLVKPSETLSLTCTVSGGSVSSGGYYWSWIRQPPGKGLEWIGYIYYSGGTNYNPSLKSRVTISVDTSKNQFSLKLTSVTAADTAVYYCARESGYCTNVACFPDAFDIWGQGTMVTVSS
VL: DVVMTQSPFSLPVTPGEPASISCRSSQSLLHSNGFNFLDWYLQKPGQSPQLLIYLGSIRASGVPDRFSGSGSGTDFTLKISRVEAEDVGVYYCMQALQTPLTFGGGTRVEIK
For B1, the binding result in experiment [1] and in experiment [2] was “binds” throughout.

B2: Ha5-7be31.1 (antibody, V domains shown)
VH: QVQLQESGPGLVKPSETLSLTCTVSGGSISSYYWSWIRQPPGKGLEWIGYIYYSGSTNYNPSLKSRVTISVDTSKNQFSLKLSSVTAADTAVYYCARGYYYGAGSYGMDVWGQGTTVTVSS
VL: DIVMTQSPLSLPVTPGEPASISCRSSQSLLHSTGFNYLDWYLQKPGQSPQLLIYLGSIRASGVPDRFSGSGSGTDFTLKISRVETEDVGVYYCMQTLQTPITFGQGTRLEIK
On to B2, for which the binding entry in experiment [1] and in experiment [2] was “binds” each time.

B3: Ha5-8ac4.1 (antibody, V domains shown)
VH: QVQLQESGPGLVKPSETLSLTCTVSGGSISRYYWSWIRQPAGKGLERIGRIYTSGSTDYNPSLKSRVTMSVDTSKNQFSLKLRSVTAADTAVYYCARDLYSNGYWYFDLWGRGTLVTVSS
VL: QSVLTQPPSVSGAPGQRVTISCTGSSSNIGAGYDVHWYQQLPGTAPKLLIYGNSNRPSGVPDRFSGSKSGTSASLAITGLQAEDEADYYCQSYDSSLSGVVFGGGTKLTVL
For the molecule B3, the binding entry in experiment [1] and in experiment [2] was “binds” in each case.

B4: Ha5-7acd13.1 (antibody, V domains shown)
VH: QVQLQESGPGLVKPSETLSLTCTVSGGSISSYYWSWIRQPPGKGLEWIGYIYYSGSTNYNPSLKSRVTISVDTSKNQFSLKLSSVTAADTAVYYCANTYYYGSGYGMDVWGQGTTVTVSS
VL: DIVMTQSPLSLPVTPGEPASISCRSSQSLLHSTGHNYLDWYLQKPGQSPQLLIYLGSIRASGVPDRFSGSGSGTDFTLKISRVEAEDVGVYYCMQALQTITFGQGTRLEIK
Take B4: the binding result in experiment [1] and in experiment [2] was “binds” each time.

B5: Ha5-7acd5.1.1 (antibody, V domains shown)
VH: QVQLQESGPGLVKPSETLSLTCTVSGGSISSYYWSWIRQPPGKGLEWIGYIYYSGSTNYNPSLKSRVTISVDTSKNQFSLKLSSVTAADTAVYYCANTYYYGSGYGMDVWGQGTTVTVSS
VL: DIVMTQSPLSLPVTPGEPASISCRSSQSLLHSTGHNYLDWYLQKPGQSPQLLIYLGSIRASGVPDRFSGSGSGTDFTLKISRVEAEDVGVYYCMQALQTITFGQGTRLEIK
As for B5, the binding result in experiment [1] and in experiment [2] was “binds” in each case.

B6: Ha5-7acd2.1 (antibody, V domains shown)
VH: QVQLQESGPGLVKPSETLSLTCTVSGGSISSYYWSWIRQPPGKGLEWIGYIYYSGSTNYNPSLKSRVTISVDTSKNQFSLKLSSVTAADTAVYYCANTYYYGSGYGMDVWGQGTTVTVSS
VL: DIVMTQSPLSLPVTPGEPASISCRSSQSLLHSTGHNYLDWYLQKPGQSPQLLIYLGSIRASGVPDRFSGSGSGTDFTLKISRVEAEDVGVYYCMQALQTITFGQGTRLEIK
Consider B6, for which the binding result in experiment [1] and in experiment [2] was “binds” each time.

B7: Ha5-3(3,5)37.1 (antibody, V domains shown)
VH: QVQLQESGPGLVKPSETLSLTCTVSGGSISSYYWSWIRQPPGKGLEWIGYIYYSGSTNYNPSLKSRVTISVDTSKNQFSLKLNSVTAADTAVYYCARGYYYGSESPYGMDVWGQGTTVTVSS
VL: DIVMTQSPLSLPVTPGEPASISCRSSQSLLHSNGHNYLDWYLQKPGQSPHLLIYLGSNRDSGVPDRFSGSGSGTDFTLKISRVEAEDVGVYYCMQALQIPCSFGQGTKLEIK
Turning to B7, the binding result in experiment [1] and in experiment [2] was “binds” in each case.

B8: Ha5-1(5)1 (antibody, V domains shown)
VH: QVQLVESGGGVVQPGRSLRLSCGASGFTFSSYGMHWVRQAPGKGLEWVAVMSYDGSKKYYTDSVKGRFTISRDNSKNTLYLQMNSLRVEDTAVYYCARDGGDYVRYYYYGMDVWGQGTTVTVSS
VL: DIQMTQSPSSLSASVGDRVTITCRARQGITYHLAWYQQRPGKVPKLLIYDTSSLQSGVPSRFSGSGSGTDFTLTISSLQPEDVATYYCQRFNSAPLTFGGGTKVEIK
On to B8, for which the binding entry in experiment [1] and in experiment [2] was “binds” each time.

B9: Ha5-1(5)2.1 (antibody, V domains shown)
VH: QVQLVESGGGVVQPGRSLRLSCAASGFTFSSYGMHWVRQAPGKGLEWVAVMSYDGSKKFYTDSVKGRFTISRDNSKNTLYLQMNSLRAEDTAVYYCARDGGDYVRYHYYGMDVWGQGTTVTVSS
VL: DIQMTQSPSTLSASIGDRVTITCRASQGISYYLAWYQQKPGKIPKLLIYDTSSLQSGVPSRFSGSRSGTDLSLTISSLQPEDVATYYCQRYDSAPLTFGGGTKVEIK
Consider B9, for which the binding result in experiment [1] and in experiment [2] was “binds” in each case.

These data come from patent publication US20090175796A1.
